Paper PMC8270969
Results are given in words; binding and its absence hold for the method and conditions named. Binding seen in cells or lysates may run through a third protein. A yes stands for co-enrichment or nearness to the bait. Other partners may have been found.

The chains behind the UniProt entries cited, without tags or fusion partners. Where a name states a change or a piece, a line headed by the entry shows the natural chain unless it says otherwise. Residues count along the entry.
UniProt Q16610, residues 20-540: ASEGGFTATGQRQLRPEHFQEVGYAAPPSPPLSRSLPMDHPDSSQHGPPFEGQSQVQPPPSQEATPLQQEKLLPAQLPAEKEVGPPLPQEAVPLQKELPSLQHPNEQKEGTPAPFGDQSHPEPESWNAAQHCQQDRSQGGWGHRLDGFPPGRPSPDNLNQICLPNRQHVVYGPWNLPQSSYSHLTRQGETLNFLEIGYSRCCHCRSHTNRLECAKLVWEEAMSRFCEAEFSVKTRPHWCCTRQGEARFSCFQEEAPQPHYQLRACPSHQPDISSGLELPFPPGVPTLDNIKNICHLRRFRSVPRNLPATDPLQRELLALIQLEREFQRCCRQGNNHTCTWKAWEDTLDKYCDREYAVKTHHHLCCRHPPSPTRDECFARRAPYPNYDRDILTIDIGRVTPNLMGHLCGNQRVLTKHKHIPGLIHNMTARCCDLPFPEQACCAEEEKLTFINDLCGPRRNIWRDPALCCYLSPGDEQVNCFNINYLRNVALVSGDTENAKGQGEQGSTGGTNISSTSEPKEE
UniProt P27824, residues 21-592: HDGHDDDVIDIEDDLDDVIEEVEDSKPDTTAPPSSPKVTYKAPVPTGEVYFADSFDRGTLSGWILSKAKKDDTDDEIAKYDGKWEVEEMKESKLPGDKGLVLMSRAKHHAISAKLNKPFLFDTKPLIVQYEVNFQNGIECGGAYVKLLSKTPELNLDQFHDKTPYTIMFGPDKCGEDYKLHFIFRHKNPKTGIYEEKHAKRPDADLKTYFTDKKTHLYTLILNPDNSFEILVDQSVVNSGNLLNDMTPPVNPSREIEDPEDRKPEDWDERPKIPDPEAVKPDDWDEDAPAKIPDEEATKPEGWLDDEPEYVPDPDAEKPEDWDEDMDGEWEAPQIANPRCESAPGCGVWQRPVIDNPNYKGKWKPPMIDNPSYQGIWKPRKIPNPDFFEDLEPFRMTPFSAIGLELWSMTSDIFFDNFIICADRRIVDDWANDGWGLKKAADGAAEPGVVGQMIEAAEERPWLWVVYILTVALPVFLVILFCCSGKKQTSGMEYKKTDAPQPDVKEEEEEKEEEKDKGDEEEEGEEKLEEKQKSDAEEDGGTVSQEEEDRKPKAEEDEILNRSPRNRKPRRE
UniProt P05556: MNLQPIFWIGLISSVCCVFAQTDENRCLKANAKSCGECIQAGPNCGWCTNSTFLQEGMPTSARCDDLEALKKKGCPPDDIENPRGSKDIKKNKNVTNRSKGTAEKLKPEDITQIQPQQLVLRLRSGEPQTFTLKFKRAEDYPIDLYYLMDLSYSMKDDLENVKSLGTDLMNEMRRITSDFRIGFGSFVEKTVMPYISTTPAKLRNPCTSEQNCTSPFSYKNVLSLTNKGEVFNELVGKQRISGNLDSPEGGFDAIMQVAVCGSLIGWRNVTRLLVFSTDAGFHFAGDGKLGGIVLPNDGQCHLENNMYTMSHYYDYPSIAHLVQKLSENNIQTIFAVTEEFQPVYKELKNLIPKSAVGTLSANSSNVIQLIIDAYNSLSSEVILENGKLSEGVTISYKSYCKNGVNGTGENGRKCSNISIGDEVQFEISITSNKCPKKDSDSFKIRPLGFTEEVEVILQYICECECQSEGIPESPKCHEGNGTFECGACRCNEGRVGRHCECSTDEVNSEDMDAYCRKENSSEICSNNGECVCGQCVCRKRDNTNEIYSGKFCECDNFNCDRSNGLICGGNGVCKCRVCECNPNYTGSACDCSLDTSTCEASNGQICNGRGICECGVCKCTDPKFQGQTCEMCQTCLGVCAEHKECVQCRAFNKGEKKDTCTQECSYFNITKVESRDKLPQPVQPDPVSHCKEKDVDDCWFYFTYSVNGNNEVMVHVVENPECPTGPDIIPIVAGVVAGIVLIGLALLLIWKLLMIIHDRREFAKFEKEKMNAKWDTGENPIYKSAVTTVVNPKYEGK
UniProt P07355: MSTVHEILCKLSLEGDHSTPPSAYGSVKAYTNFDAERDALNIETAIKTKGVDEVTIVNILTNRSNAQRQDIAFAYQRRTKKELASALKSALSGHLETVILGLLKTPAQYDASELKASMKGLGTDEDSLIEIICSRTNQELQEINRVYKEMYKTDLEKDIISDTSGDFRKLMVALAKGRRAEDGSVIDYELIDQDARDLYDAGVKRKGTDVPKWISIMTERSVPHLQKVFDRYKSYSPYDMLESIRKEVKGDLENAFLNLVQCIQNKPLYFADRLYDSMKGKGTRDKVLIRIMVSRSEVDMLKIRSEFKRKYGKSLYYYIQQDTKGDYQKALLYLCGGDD

Each molecule was assayed against HA-tagged ECM1a (extracellular matrix protein-1, secretory isoform a), wild type (human) (UniProt Q16610) (assay: affinity purification with mass spectrometry + co-IP; HA antibody on total cell lysates or membrane fractions of ECM1a-WT or ECM1a-MT cells, or membrane fractions of HeyA8 cells pretreated with their conditioned medium; selected bands by MS, confirmed by co-IP).

| binding | Molecule |
| --- | --- |
| binds | calnexin (from UniProt P27824 21-592) |
| binds | integrin β1 (from UniProt P05556 21-798) (receptor) |
| binds | annexin A2 (from UniProt P07355 1-339) |
| binds | S100A9 (protein, UniProt P06702 1-114) MTCKMSQLERNIETIINTFHQYSVKLGHPDTLNQGEFKELVRKDLQNFLKKENKNEKVIEHIMEDLDTNADKQLSFEEFIMLMARLTWASHEKMHEGDEGPGHHHKPGLGEGTP |
| binds | JUP (protein, UniProt P14923 1-745) MEVMNLMEQPIKVTEWQQTYTYDSGIHSGANTCVPSVSSKGIMEEDEACGRQYTLKKTTTYTQGVPPSQGDLEYQMSTTARAKRVREAMCPGVSGEDSSLLLATQVEGQATNLQRLAEPSQLLKSAIVHLINYQDDAELATRALPELTKLLNDEDPVVVTKAAMIVNQLSKKEASRRALMGSPQLVAAVVRTMQNTSDLDTARCTTSILHNLSHHREGLLAIFKSGGIPALVRMLSSPVESVLFYAITTLHNLLLYQEGAKMAVRLADGLQKMVPLLNKNNPKFLAITTDCLQLLAYGNQESKLIILANGGPQALVQIMRNYSYEKLLWTTSRVLKVLSVCPSNKPAIVEAGGMQALGKHLTSNSPRLVQNCLWTLRNLSDVATKQEGLESVLKILVNQLSVDDVNVLTCATGTLSNLTCNNSKNKTLVTQNSGVEALIHAILRAGDKDDITEPAVCALRHLTSRHPEAEMAQNSVRLNYGIPAIVKLLNQPNQWPLVKATIGLIRNLALCPANHAPLQEAAVIPRLVQLLVKAHQDAQRHVAAGTQQPYTDGVRMEEIVEGCTGALHILARDPMNRMEIFRLNTIPLFVQLLYSSVENIQRVAAGVLCELAQDKEAADAIDAEGASAPLMELLHSRNEGTATYAAAVLFRISEDKNPDYRKRVSVELTNSLFKHDPAAWEAAQSMIPINEPYGDDMDATYRPMYSSDVPLDPLEMHMDMDGDYPIDTYSDGLRPPYPTADHMLA |

What follows are molecules tested against HA-tagged ECM1a mutant with VAQ instead of the GPR motif (human) (UniProt Q16610) in the same assay as above.

| binding | Molecule |
| --- | --- |
| binds | S100A8 (protein, UniProt P05109 1-93) MLTELEKALNSIIDVYHKYSLIKGNFHAVYRDDLKKLLETECPQYIRKKGADVWFKELDINTDGAVNFQEFLILVIKMGVAAHKKSHEESHKE |
| binds | plakophilin-1 (protein, UniProt Q13835 1-747) MNHSPLKTALAYECFQDQDNSTLALPSDQKMKTGTSGRQRVQEQVMMTVKRQKSKSSQSSTLSHSNRGSMYDGLADNYNYGTTSRSSYYSKFQAGNGSWGYPIYNGTLKREPDNRRFSSYSQMENWSRHYPRGSCNTTGAGSDICFMQKIKASRSEPDLYCDPRGTLRKGTLGSKGQKTTQNRYSFYSTCSGQKAIKKCPVRPPSCASKQDPVYIPPISCNKDLSFGHSRASSKICSEDIECSGLTIPKAVQYLSSQDEKYQAIGAYYIQHTCFQDESAKQQVYQLGGICKLVDLLRSPNQNVQQAAAGALRNLVFRSTTNKLETRRQNGIREAVSLLRRTGNAEIQKQLTGLLWNLSSTDELKEELIADALPVLADRVIIPFSGWCDGNSNMSREVVDPEVFFNATGCLRKRLGMRELLALVPQRATSSRVNLSSADAGRQTMRNYSGLIDSLMAYVQNCVAASRCDDKSVENCMCVLHNLSYRLDAEVPTRYRQLEYNARNAYTEKSSTGCFSNKSDKMMNNNYDCPLPEEETNPKGSGWLYHSDAIRTYLNLMGKSKKDATLEACAGALQNLTASKGLMSSGMSQLIGLKEKGLPQIARLLQSGNSDVVRSGASLLSNMSRHPLLHRVMGNQVFPEVTRLLTSHTGNTSNSEDILSSACYTVRNLMASQPQLAKQYFSSSMLNNIINLCRSSASPKAAEAARLLLSDMWSSKELQGVLRQQGFDRNMLGTLAGANSLRNFTSRF |
